Binding data for seven molecules are collected here from publication PMC3819369.

Protein sequences, listed by entry. Tags and fused reporters are not part of them.
UniProt P49789: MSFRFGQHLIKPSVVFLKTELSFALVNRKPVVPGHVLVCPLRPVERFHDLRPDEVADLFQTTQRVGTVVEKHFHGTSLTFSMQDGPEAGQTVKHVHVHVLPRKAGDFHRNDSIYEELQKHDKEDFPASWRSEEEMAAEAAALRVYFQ
UniProt P07355: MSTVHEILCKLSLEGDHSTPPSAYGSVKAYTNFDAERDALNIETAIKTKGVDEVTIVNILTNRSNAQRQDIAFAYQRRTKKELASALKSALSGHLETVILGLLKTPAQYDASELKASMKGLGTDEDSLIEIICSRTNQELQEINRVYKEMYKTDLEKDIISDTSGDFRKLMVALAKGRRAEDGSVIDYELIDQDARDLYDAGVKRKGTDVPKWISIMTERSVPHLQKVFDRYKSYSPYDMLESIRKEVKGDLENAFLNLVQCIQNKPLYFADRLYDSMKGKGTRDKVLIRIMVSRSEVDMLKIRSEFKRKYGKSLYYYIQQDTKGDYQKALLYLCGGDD
UniProt P14618: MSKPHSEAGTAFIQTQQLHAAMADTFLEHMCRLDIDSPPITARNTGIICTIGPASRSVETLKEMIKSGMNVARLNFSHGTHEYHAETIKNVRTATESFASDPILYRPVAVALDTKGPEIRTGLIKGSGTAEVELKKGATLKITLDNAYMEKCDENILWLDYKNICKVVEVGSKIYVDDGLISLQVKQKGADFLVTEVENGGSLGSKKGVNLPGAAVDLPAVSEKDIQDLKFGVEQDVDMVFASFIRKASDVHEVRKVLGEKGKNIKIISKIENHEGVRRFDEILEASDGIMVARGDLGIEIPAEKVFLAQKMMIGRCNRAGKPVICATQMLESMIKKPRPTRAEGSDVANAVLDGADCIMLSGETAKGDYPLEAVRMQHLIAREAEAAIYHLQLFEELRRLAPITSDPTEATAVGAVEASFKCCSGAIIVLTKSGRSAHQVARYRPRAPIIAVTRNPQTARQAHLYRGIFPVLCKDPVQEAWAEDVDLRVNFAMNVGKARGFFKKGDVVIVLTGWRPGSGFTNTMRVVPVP
UniProt P06733: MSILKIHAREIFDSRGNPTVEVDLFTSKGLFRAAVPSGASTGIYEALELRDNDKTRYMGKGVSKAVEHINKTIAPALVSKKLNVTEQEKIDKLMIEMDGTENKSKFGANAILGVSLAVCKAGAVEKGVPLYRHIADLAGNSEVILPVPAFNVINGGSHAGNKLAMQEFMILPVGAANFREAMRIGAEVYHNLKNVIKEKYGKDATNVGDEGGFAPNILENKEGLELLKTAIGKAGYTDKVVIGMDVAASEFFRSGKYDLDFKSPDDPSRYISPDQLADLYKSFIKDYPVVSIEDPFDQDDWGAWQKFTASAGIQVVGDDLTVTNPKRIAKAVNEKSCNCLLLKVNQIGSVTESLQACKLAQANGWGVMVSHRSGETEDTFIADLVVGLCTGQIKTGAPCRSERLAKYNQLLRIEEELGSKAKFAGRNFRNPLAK
UniProt P04350: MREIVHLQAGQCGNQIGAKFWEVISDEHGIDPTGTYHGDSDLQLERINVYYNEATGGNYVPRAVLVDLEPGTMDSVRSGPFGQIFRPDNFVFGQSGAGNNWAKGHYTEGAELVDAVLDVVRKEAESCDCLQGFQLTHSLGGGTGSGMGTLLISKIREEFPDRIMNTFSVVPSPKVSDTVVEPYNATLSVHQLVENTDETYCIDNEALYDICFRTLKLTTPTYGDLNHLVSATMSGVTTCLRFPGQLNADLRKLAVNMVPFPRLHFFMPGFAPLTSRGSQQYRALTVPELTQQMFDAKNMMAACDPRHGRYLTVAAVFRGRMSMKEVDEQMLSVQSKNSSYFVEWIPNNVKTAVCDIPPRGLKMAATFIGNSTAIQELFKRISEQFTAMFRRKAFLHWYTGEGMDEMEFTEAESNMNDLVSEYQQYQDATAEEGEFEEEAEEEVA

Sequences and labels used below:
B1: Mitochondrial malate dehydrogenase (protein, UniProt P40926 25-338)
chain: AKVAVLGASGGIGQPLSLLLKNSPLVSRLTLYDIAHTPGVAADLSHIETKAAVKGYLGPEQLPDCLKGCDVVVIPAGVPRKPGMTRDDLFNTNATIVATLTAACAQHCPEAMICVIANPVNSTIPITAEVFKKHGVYNPNKIFGVTTLDIVRANTFVAELKGLDPARVNVPVIGGHAGKTIIPLISQCTPKVDFPQDQLTALTGRIQEAGTEVVKAKAGAGSATLSMAYAGARFVFSLVDAMNGKEGVVECSFVKSQETECTYFSTPLLLGKKGIEKNLGIGKVSSFEEKMISDAIPELKASIKKGEDFVKTLK
B2: Peroxidoxin 1 (protein, UniProt Q06830 1-199)
chain: MSSGNAKIGHPAPNFKATAVMPDGQFKDISLSDYKGKYVVFFFYPLDFTFVCPTEIIAFSDRAEEFKKLNCQVIGASVDSHFCHLAWVNTPKKQGGLGPMNIPLVSDPKRTIAQDYGVLKADEGISFRGLFIIDDKGILRQITVNDLPVGRSVDETLRLVQAFQFTDKHGEVCPAGWKPGSDTIKPDVQKSKEYFSKQK
B3: Aldehyde dehydrogenase (protein, UniProt P00352 1-501)
chain: MSSSGTPDLPVLLTDLKIQYTKIFINNEWHDSVSGKKFPVFNPATEEELCQVEEGDKEDVDKAVKAARQAFQIGSPWRTMDASERGRLLYKLADLIERDRLLLATMESMNGGKLYSNAYLNDLAGCIKTLRYCAGWADKIQGRTIPIDGNFFTYTRHEPIGVCGQIIPWNFPLVMLIWKIGPALSCGNTVVVKPAEQTPLTALHVASLIKEAGFPPGVVNIVPGYGPTAGAAISSHMDIDKVAFTGSTEVGKLIKEAAGKSNLKRVTLELGGKSPCIVLADADLDNAVEFAHHGVFYHQGQCCIAASRIFVEESIYDEFVRRSVERAKKYILGNPLTPGVTQGPQIDKEQYDKILDLIESGKKEGAKLECGGGPWGNKGYFVQPTVFSNVTDEMRIAKEEIFGPVQQIMKFKSLDDVIKRANNTFYGLSAGVFTKDIDKAITISSALQAGTVWVNCYGVVSAQCPFGGFKMSGNGRELGEYGFHEYTEVKTVTVKISQKNS

These are yes or no findings as the source states them, for the method shown. Binding seen in cells or lysates may run through a third protein. Here binding means that the protein was enriched with, or labelled near, the bait; the list need not be complete.

The experiment has as its target Fhit-His6 recombinant protein (human) (UniProt P49789). In words: affinity purification with mass spectrometry; A549 cells infected with AdFHIT-His6 (AdFHIT as control) at MOI50, treated with the cross-linker DSP in living cells; membrane enriched fraction; Fhit-His6 isolated with nickel beads; DTT to cleave DSP, trypsin, LC-MS/MS.
With Annexin A2 (from UniProt P07355 1-339), the binding result is “binds”.
Under “Pyruvate kinase (from UniProt P14618 1-531)” stands “binds”; under “2-phosphopyruvate-hydratase alpha enolase (from UniProt P06733 1-434)”, “binds”; under “Tubulin 5beta (from UniProt P04350 1-444)”, “binds”.
With B1, the binding entry is listed as “binds”.
Under B2 stands “binds”; under B3, “binds”.
